Laboratory results from PubChem BioAssay AID1347423 (Functional Genomics Laboratory (NCATS/FGL), 2020).
About 210 (0.4%) of roughly 52,000 sequences were called active.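 The calls were made as follows: active = gene whose silencing raises cell survival under the drug, median off-target-corrected z-score across its silencing RNAs 2 or more; inactive = the rest.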 This is one part of the list.

Test: Resistance to Poly (ADP-Ribose) Polymerase inhibitor: Gene Identification via Genome-wide siRNA Screen
Conditions: mouse BRCA2 R2336H ES cells, olaparib, CellTiter-Glo viability; active compounds read high
Method in brief: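 Mouse BRCA2 R2336H ES cells were reverse-transfected with siRNA (20 nM final), treated at 48 h with 500 nM olaparib, and read by CellTiter-Glo after 72 h. Scores: MAD-based z per siRNA, median per gene, seed off-target correction.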

Row | Sequence | z-score
1 | CCAUGCGUAUCCGUAUGACTT against 1500034E06Rik | inactive: 0.674
2 | GAGGAGCAAAUCCCGGUGATT against Prm3 | inactive: -1.17
3 | GGCAGGUUCAUUGAGGUUCTT against 1110031I02Rik | inactive: -0.0803
4 | GGCUUUUGAGAUUGCUAAATT against Mfap3l | inactive: 0.183
5 | CCGGAUCCAGCCAAUCAAATT against Fkbpl | inactive: 0.642
6 | CGCACAAAGGAUUUUUGUATT against Epha7 | inactive: -0.182
7 | GGGACUGUAAUACCAUGAUTT against Rnase10 | inactive: 0.241
8 | GGCACUUCGUAUAAAGACCTT against Hadhb | inactive: 0.527
9 | CCAAGUAGGUCCUAGUCUATT against 1700009P17Rik | inactive: -0.964
10 | GGAUGAAGUGGCCAUAAAUTT against Olfr791 | inactive: 0.794
11 | GGGAAGUGACCAUCAAGAATT against Slc8a3 | inactive: 1.46
12 | CCGACUGAAUCAUAUAUCUTT against Rpp25 | inactive: 0.155
13 | GCGAACAAAAUGAGGACUUTT against Dusp23 | inactive: -1.56
14 | CCUUUCCGACGAUAGGACCTT against Piga | inactive: 0.192
15 | GGAAGUCCUUAGGUUUGGCTT against Edg8 | inactive: -0.101
16 | CCAUAAUUAGGGAAUCCAGTT against Itga5 | inactive: 0.105
17 | GGACAAACUAUGGUACCAGTT against Phldb1 | inactive: -0.0862
18 | GGAACGUGAACUUUGUAUUTT against Nek2 | inactive: 0.177
19 | GCAGGAUUCAUGUAAAUAGTT against 6720425G15Rik | inactive: -1.07
20 | GGAACUAGCACAAUGGUUCTT against AW050020 | inactive: -1.23
21 | GCAUCAGAUAUCAGGGCAUTT against Pabpc2 | inactive: 0.219
22 | CCGAAAAAUGUCCAAAUCGTT against Chx10 | inactive: 1.6
23 | GGUCUGUGGGAAACAUAAATT against Gria3 | inactive: -1.78
24 | GGCACUGCCAUUAACAAAATT against Nrip1 | inactive: 1.57
25 | GGGAGCUAAGUACAGCAAGTT against Abt1 | inactive: 0.299
26 | GGCUCCGGUAAAGCUAUAUTT against 2700078E11Rik | inactive: -1.8
27 | GCAUUGUGAAUAUUCAGAUTT against Lass4 | inactive: -0.0966
28 | GCCUCGAGUAGAGUAUUCUTT against BC062109 | inactive: 2.66
29 | GGACUCAGAACUUGUGUAUTT against Wnt11 | inactive: -1.5

Exported with each value named: entries from further up.
CGCACAAAGGAUUUUUGUATT against Epha7
  z-score: inactive: -0.182
GGGACUGUAAUACCAUGAUTT against Rnase10
  z-score: inactive: 0.241
